Experimental data from PMC10581057.

Molecular target: T1, OmpR (UniProt E0SJT3)
T1 sequence (looked up): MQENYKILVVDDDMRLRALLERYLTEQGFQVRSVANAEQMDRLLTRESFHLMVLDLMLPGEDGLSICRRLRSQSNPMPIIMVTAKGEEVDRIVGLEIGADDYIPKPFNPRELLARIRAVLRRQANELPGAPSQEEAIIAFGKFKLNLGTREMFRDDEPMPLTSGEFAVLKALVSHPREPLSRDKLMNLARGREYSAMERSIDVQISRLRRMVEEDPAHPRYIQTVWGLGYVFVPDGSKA
Experiment: EMSA
Settings: 100 ng opgC control fragment present; 100 ng target DNA + 100 ng control DNA, various OmpR-His6 amounts, gel shift buffer (composition and pH not given), 30 min, room temperature; 6% acrylamide TBE gel; recombinant protein; residues 1-239; protein details: His6 (pET100/D-TOPO vector tag); label: none (ethidium bromide); probe letters rebuilt from the primers and the genome

Sequence	binding result
TATTGTCGACGCCGTCTTTATTGTACACTTCAGCCGCGTTAGCTGCACCGGCAGCCAACAGAGCCGGGATTACCACTGCAAGAAGATTGCGCTTCATCATTATTACCCTCATTGGTGTTATTAAGACAGCTGGATCACAGTAAAAGAATTCTGACGGAACTTTAATGTGAATCCAGTTGTCTTCCTGTGTCTGAACGCAGTTTTCCATTCACCCGCCCGTTAATCTACTCTTTAAATGATACTAATTTCTAATTCGAGTAACCATTGGAAAATATGTGTTTCAAATTGTAAAATTTACGGAACTTTGTGAGCAAACTCTAAAATAAAAAAAGAAGGGCACCCATAAGGTGCCCTTCTTATTACATATATCTGTTTTTCTTATGTTATTTTTCGCTTAGAAGGTGGCGCTGCGCGGTGTGCGCGGGAACGGAATGACATCGCGCACATTTTGTACACCGGTTACATAAGCAATCAAACGTTCAAAACCAAGACCGAAACCAGAGTGAGGAATGGTGCCATAACGACGCAGATCACGGTACCACCAGTAATCTTCCTTACTGAGTCCCATTTCTTCCAGGCGGATATCCAACTGTTCCAGACGTTCTTCACG (double strand) [ompF upstream region]	binds
CAGAGGACGCGAGGTGCTTGCCAGCGGCACCACTGGCACCCTAAGCTTCCGGGATTCTGTCTCCCGGTAATCTGCAGTATGGCTGATATATTTATAAGAATAAAACTCGTGCTTAAATCAGTATTTAAAATCACATTTAAAATTAATAAAAACAAAACAAACAAATCCATCTTCAACCCATTGTTTATTATTAAAAAATAAAGAAATAAAAATGAAATGTAATGTTTTGATTCGAATAAAAACATAATATTTCACCAACGCCGTTCTCGTATCATTTCCAACCTGACTAAAGCTTACCCCCGATGTGAGACTGCTGATGGGCACAACAAAGCATCGGCAATATTTCTGCTGATTATCTATTGCCGCCAGAAAGAAGTGTCTCAATGGTCAATAACACATAACGAGGGTAATGCGAATGATGAAGCACTTGATAAATACGCTAGCCACATCAGTATTGTTATTTTCAACTGGTCTGGTCAGTGCGGCTGAGGTTTATAATAAAGATGGTAATAAGCTTGATCTGTATGGCAAAGTACGATCAGCTTATTACTTTGGCGATAAAACCAATAGTTTCAAAGGGAATGGTGATTCAACGTATGCACGTCTGGGGG (double strand) [ompF3 upstream region]	binds

Protein sequences can lack the tags named with them.
